Source: paper PMC12631106
No constants are given. Whether binding was seen depends on the method and setting. Binding seen in cells or lysates may run through a third protein. These calls come from enrichment with a bait or labelling near it, and not all partners need be listed.

By UniProt entry, the sequences of proteins in these tests, tags left out.
UniProt P45974: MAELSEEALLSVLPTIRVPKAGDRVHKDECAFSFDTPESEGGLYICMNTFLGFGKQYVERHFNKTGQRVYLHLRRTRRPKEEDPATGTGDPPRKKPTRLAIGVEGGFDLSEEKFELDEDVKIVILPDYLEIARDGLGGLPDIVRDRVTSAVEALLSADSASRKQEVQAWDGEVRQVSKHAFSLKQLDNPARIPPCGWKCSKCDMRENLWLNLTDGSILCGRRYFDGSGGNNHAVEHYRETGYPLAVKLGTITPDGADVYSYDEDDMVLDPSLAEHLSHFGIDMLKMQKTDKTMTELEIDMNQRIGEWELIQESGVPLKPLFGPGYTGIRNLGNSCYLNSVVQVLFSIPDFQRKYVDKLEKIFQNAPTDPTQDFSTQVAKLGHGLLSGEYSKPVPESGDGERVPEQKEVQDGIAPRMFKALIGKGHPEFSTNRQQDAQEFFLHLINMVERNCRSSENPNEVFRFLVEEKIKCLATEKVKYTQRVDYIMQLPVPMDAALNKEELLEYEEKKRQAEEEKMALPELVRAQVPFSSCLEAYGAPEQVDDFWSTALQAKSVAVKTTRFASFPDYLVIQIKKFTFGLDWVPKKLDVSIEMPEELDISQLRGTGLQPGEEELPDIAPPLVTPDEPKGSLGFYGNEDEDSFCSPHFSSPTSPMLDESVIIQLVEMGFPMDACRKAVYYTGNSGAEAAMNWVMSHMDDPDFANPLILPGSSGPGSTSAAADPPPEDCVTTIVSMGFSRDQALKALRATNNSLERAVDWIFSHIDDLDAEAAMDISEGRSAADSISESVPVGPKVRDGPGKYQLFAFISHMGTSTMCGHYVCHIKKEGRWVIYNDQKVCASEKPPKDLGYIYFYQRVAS
UniProt P40763: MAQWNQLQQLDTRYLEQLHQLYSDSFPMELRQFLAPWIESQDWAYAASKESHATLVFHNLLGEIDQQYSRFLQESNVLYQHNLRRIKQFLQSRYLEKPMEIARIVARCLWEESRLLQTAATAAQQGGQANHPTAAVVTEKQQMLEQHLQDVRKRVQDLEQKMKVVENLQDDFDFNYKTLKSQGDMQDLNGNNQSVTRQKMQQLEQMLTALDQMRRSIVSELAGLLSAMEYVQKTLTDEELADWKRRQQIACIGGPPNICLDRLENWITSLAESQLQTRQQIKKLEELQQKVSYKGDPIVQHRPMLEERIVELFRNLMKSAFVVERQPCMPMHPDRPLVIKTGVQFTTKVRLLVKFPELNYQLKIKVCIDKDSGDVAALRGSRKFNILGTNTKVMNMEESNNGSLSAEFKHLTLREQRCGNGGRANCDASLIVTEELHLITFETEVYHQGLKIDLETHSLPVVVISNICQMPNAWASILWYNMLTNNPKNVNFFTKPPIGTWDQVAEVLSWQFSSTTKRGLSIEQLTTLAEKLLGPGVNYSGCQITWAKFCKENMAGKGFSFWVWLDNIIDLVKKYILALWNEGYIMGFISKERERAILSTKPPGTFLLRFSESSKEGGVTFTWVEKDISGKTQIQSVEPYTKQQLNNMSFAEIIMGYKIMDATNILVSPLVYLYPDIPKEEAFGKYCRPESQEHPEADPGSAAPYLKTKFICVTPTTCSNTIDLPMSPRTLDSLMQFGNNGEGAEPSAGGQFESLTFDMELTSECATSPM

Molecular target: ubiquitin specific peptidase 5 (USP5) (human (endogenous in HCT116)) (UniProt P45974)
Assay: affinity purification with mass spectrometry; HCT116 total protein, IP with anti-USP5 or anti-IgG antibody and protein A + G magnetic beads; SDS-PAGE, silver staining, anti-USP5-specific band cut for LC-MS/MS

binding: binds
Substance: signal transducer and activator of transcription 3 (STAT3) (from UniProt P40763 1-770)
